# Results from PubChem BioAssay AID493014 (National Center for Advancing Translational Sciences (NCATS), 2011).
# About 170 (0.05%) of roughly 340,000 compounds were called active. The shares of active, inactive and inconclusive entries below differ from those in the screen. Calls follow the shape of the dose curve; as a rule, active = well fitted inhibition curve with a large enough effect in the signal ratio, with a control signal flat (not every such curve was filed as active); inconclusive = small, poorly fitted or top-dose-only effect, or effect the other way, or a change in a side signal; inactive = flat fitted curve, though single readings scatter; the % refers to the signal ratio. Where the call is inconclusive, the potency comes from a doubtful curve fit.
# Experiment: qHTS Assay to Find Inhibitors of Chronic Active B-Cell Receptor Signaling;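 as to activity change, negative = inhibition: plate controls were basal doxycycline-induced cells for no effect and cells given 10 µM MG132 for full effect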
# Settings: ABC-DLBCL IkBa-CBG/CBR reporter, luminescence ratio (green luciferase fused to IkBa over red control in TMD8 lymphoma cells), 4 h; activity change, negative = inhibition: at 46.1 µM (top of the series) unless noted
# In short: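 Cell line TMD8 (human ABC DLBCL), stably expressing tet-inducible CBG68-IkBa fusion and CBR; IMDM/0.5% FBS; cpd up to 46 uM; dox induction, 4 h, 37C/5% CO2; dual luminescence; green/red ratio; MG132 control.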
# Potency is read from the fitted curve at half-maximal effect.
SMILES,"activity change, negative = inhibition",Potency
CCC1Oc2ccc(C)cc2N(CC(=O)NCc2ccccc2OC)C1=O (stereo not drawn),inconclusive: -11.3%,
Cc1nn(CC(=O)Nc2ccc(Cl)cc2Cl)c(=O)c2ccccc12,inconclusive: 8.23%,
Cc1ccc(CN(C)C(=O)c2cccc(S(=O)(=O)N3CCCC3)c2)cc1,inactive,
CCN(CC)C(=O)c1cc(C(C)(C)C)c(O)c(C(C)(C)C)c1,inconclusive: 0.0143%,
Cn1c(C(=O)OC(C(=O)NC2CCCC2)c2cccnc2)cc2sccc21 (stereo not drawn),inactive,
Cc1ccc(Nc2cc(C)c3ccc(O)cc3n2)cc1C,inconclusive: 11%,
CCOC(=O)c1nnn(CC(=O)NC(=O)Nc2cccc(CC)c2)c1C(=O)OCC,,"inconclusive: 35.5 µM [falling, single point]"
CC1CC(C)(C)CC2(C1)NC(=O)N(CC(=O)Nc1cc([N+](=O)[O-])ccc1F)C2=O (stereo not drawn),inactive,
COc1ccc(NC(=O)CSc2nnc(-c3ccoc3C)n2CCc2ccccc2)cc1,inconclusive: 5.25%,
CSc1nsc(SCC(=O)N2CCCc3ccccc32)n1,inactive,
CCc1ccc(NC(=O)c2ccccc2Br)cc1,,"inconclusive: 22.4 µM [falling, single point]"
O=C1NC(=O)C(=C2CCCCCC2)S1,inconclusive: -14.3%,
COc1ccc(CCNc2ncnc3c2c(C)c(C)n3CCO)cc1OC,inconclusive: -5.91%,
COc1cc(/C=C2\N=C(c3c(-c4ccccc4)noc3C)OC2=O)ccc1OC(C)=O,,"inconclusive: 14.1 µM [falling, partial curve, poor fit]"
Cc1ccc(NC(=O)NCCCCc2ccccc2)cc1,inconclusive: -0.0256%,
Cc1ccc(NC(=O)Cn2c(-c3ccc(F)cc3)cnc2SCC(=O)Nc2c(C)cccc2C)cc1,inactive,
COc1ccccc1NC(=O)COc1ccc2c(c1)OCO2,,"inconclusive: 11.2 µM [falling, partial curve]"
CSc1cccc(NC(=O)C(C)NS(=O)(=O)c2ccc(F)cc2)c1 (stereo not drawn),,"inconclusive: 0.651 µM [falling, partial curve, poor fit]"
O=C(N/N=C/c1ccc([N+](=O)[O-])cc1)c1cccnc1,inactive,
COc1cccc(NC(=O)N2CCN(c3nc(-c4cccc(OC)c4)cs3)CC2)c1,inconclusive: -21.5%,
Cn1c2ccsc2c2cnn(Cc3ccc(F)cc3)c(=O)c21,inactive,
CCOC(=O)CCCNC(=O)CN1CCC(c2nc3ccccc3s2)CC1,inconclusive: -6.33%,
O=C(Nc1ccccc1N1CCCCC1)C1CCN(S(=O)(=O)c2cccc(C(F)(F)F)c2)CC1,,"inconclusive: 25.9 µM [falling, single point]"

# 3 compounds out of the list, ordered by molecular weight, largest number first.
SMILES,"activity change, negative = inhibition",Potency
CCOC(=O)c1nnn(CC(=O)NC(=O)Nc2cccc(CC)c2)c1C(=O)OCC,,"inconclusive: 35.5 µM [falling, single point]"
CCc1ccc(NC(=O)c2ccccc2Br)cc1,,"inconclusive: 22.4 µM [falling, single point]"
O=C(N/N=C/c1ccc([N+](=O)[O-])cc1)c1cccnc1,inactive,
